We go through three sequences from PMC2877716, “Genome-Wide Identification of Calcium-Response Factor (CaRF) Binding Sites Predicts a Role in Regulation of Neuronal Signaling Pathways”.

For at least one entry, the source does not settle the construct or the ends of the probe. The comparison behind a weaker result is the experiment's own reference, which may not be listed here. Protein sequences can lack the tags named with them. For part of these data: At least one verdict was read from the data and is not stated in words by the source.

Data set [1] has as its target T1, recombinant CaRF (Figs 5 and 6) (UniProt Q8VHI4).
T1 sequence (looked up, limits assumed): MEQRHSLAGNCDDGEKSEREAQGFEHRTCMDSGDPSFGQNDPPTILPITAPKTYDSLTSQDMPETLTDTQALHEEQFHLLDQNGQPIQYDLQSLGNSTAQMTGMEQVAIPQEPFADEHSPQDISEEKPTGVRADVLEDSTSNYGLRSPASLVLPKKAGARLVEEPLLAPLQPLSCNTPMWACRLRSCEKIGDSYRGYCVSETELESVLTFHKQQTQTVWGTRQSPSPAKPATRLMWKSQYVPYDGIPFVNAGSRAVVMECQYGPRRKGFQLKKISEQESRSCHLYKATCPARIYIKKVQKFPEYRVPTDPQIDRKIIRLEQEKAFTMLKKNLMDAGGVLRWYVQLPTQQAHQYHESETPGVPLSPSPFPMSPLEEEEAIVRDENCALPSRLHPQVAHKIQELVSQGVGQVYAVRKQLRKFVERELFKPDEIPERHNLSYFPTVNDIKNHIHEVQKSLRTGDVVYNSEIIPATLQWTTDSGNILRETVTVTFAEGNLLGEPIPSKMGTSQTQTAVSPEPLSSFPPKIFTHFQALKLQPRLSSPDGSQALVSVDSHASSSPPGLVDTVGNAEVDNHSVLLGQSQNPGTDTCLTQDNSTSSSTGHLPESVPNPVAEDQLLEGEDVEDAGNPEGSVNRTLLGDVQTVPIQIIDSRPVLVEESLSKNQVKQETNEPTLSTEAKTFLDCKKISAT
Kind of data set: competition with a labelled probe. As to conditions: cCaRE probe, 100-fold excess, EMSA: 2 uL TNT or purified CaRF with 50 fmol 32P probe, 6% non-denaturing gel, competitors 50-150-fold excess, 30 min pre-incubation, recombinant protein.

In data set [2] the target is T2, CaRF (TNT) (Homo sapiens) (UniProt Q8N187).
T2 sequence (looked up): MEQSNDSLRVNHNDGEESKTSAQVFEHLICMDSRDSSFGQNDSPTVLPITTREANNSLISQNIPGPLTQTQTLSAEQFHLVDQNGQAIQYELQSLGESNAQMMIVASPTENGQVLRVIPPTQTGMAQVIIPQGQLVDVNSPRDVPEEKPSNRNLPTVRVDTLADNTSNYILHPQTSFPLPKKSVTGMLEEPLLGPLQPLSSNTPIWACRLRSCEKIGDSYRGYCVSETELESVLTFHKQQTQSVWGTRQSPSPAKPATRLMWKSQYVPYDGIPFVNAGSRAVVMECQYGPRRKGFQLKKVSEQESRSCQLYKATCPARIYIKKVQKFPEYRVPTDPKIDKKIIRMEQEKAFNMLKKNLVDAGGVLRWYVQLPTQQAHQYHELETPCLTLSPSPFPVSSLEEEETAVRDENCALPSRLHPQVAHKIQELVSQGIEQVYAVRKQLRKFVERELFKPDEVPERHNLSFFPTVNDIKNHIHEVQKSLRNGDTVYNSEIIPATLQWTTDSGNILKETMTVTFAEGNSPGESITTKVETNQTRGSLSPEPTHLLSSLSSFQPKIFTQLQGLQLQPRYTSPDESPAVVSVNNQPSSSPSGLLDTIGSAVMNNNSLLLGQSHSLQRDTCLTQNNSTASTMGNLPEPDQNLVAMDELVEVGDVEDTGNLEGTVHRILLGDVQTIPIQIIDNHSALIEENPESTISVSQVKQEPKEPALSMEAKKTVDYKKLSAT
Put plainly: competition with a labelled probe. As to conditions: lower affinity than cCaRE, 50-150-fold unlabeled CaRE1; EMSA: 2 uL TNT or purified CaRF with 50 fmol 32P probe, 6% non-denaturing gel; competitors 50-150-fold excess, 30 min pre-incubation; protein translated in vitro; residues 1-725; protein details: N-terminal FLAG (DYKDDDDK); label: 32P when probe. (Mobility shift assays separate free from complexed probe on a gel.)

“GCCTCGGAGCCAAGACGAGGTTGAGTA (double strand) [CaRF1]”: the binding result in data set [1] (competes less than CaRF2) is listed as “binds more weakly”.

On to “GAGTGTCTATTTCGAGGCAGAGGAGG (double strand) [CaRE1]”, for which, in data set [2], the binding result is on record as “binds more weakly”.

Regarding “GCCTCGGAGCCAAGACGAGGTTGAGTAGTCTCGTTTTGAATTTTCTCC (double strand) [CaRF1+2]”, the binding result in data set [1] is on record as “binds”.
